The list is a part of this screen's results and no random one: it is rich in T/C values a quarter to a half above the control, in often repeated tests (any T/C) and in doses without a T/C. Other doses and runs of a compound stand elsewhere. T/C is the treated group as % of the vehicle group. Some doses have a count of surviving animals in place of a T/C: the source holds a T/C of zero for them, seemingly a mark for toxic or unscored doses. Some doses without a T/C left all or most animals alive at the check, yet need not have been tolerated: the source hardly ever lists a survival T/C far under the control, and the zero likely stands for such cases as well. Counts of survivors are from the toxicity check (mostly the fifth day) where no day follows; animals may have died later. Schedule codes are those of the source, taken here to give the interval after Q, in days (D) or hours (H), and the number of doses after X. For survival time, this PubChem deposit counts one and a half times the control or more as active, and values a quarter to a half above the control carry no call in these data; other NCI protocols may use other cut-offs.
Test system: P388 leukemia ip, CD2F1 mice, survival T/C
Experiment: NCI In Vivo Anticancer Drug Screen. Data for tumor model P388 Leukemia (intraperitoneal) in CD2F1 (CDF1) mice
Conditions: T/C endpoint: median survival time, higher T/C = longer survival
[1] = dose: 200.0 mg/kg/injection, schedule: Q01DX005 (ip), vehicle: Klucel (hydroxypropylcellulose) (HPC)

Question: For `c1ccc2c3c(ccc2c1)OP1(=NP(N2CC2)(N2CC2)=NP(N2CC2)(N2CC2)=N1)Oc1ccc2ccccc2c1-3`, which T/C (dose: 200.0 mg/kg/injection, schedule: Q04DX002 (ip), vehicle: Klucel (hydroxypropylcellulose) (HPC)) is on record?
Answer: The T/C was 129 % of control.

Question: What about the T/C (dose: 400.0 mg/kg/injection, schedule: Q04DX002 (ip), vehicle: Klucel (hydroxypropylcellulose) (HPC)) of the same compound?
Answer: The T/C was 133 % of control.

Question: With `Cn1c(=O)[nH]c(Sc2ccccc2)c(C=O)c1=O` as the compound, how does the survivor count (dose: 400.0 mg/kg/injection, schedule: Q01DX001 (ip), vehicle: saline with Tween-80) read?
Answer: The survivor count was 1 of 6.

Question: For `CC(C)N(CCn1cnc2c(N)ncnc21)C(C)C`, which survivor count [1] is on record?
Answer: The survivor count was 0 of 6.

Question: Which survivor count (dose: 240.0 mg/kg/injection, schedule: Q01DX005 (ip), vehicle: saline with Tween-80) does the source give for `CCCCNC(=S)N/N=C1/CC(=O)N(c2ccccc2)C1c1ccccc1` (stereo not drawn) here?
Answer: Its survivor count is 5 of 6.

Question: With `C=C(Br)CC(N)C(=O)O` (stereo not drawn) as the compound, how does the survivor count [1] read?
Answer: The survivor count was 3 of 5.

Question: For `CNC(=O)OCc1c(COC(=O)NC)c(C)n(-c2ccc(Br)cc2)c1C`, which T/C (dose: 25.0 mg/kg/injection, schedule: Q01DX009 (ip), vehicle: saline) is on record?
Answer: Its T/C is 142 % of control.

Question: And the survivor count (dose: 50.0 mg/kg/injection, schedule: Q01DX009 (ip), vehicle: saline)?
Answer: Its survivor count is 5 of 6.

From PubChem BioAssay AID330 (DTP/NCI, 2004)
